Source: article PMC8362126, “Proteolysis Targeting Chimera (PROTAC) for Macrophage Migration Inhibitory Factor (MIF) Has Anti‐Proliferative Activity in Lung Cancer Cells” (Angewandte Chemie (International Ed. in English), 2021)
The source holds more than one record for some entries. This is not the full list of results. There may be further records. Values given together do not match, cause unknown; dose, time, organism, isomer or construct need not be as stated for each record.

Sequences of proteins named here, by UniProt entry; tags and fusion partners are left off. Residues count along the entry.
UniProt P14174, 2-115 limits assumed: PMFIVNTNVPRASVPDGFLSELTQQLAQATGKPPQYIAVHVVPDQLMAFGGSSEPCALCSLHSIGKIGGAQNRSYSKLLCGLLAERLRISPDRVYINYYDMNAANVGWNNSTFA

Biological target: MIF (Homo sapiens, UniProt P14174)
Test: MIF degradation in A549 cells, cell lysate-based ELISA
Settings: 12 h, vs DMSO, mean±SD n=3
Method: In addition, A549 cells have been successfully used for assessing activity of cereblon ligand‐based PROTACs previously.[42] Therefore, A549 is a suitable cell line for evaluating the effect of our putative MIF‐directed PROTACs MD1 to MD12 on MIF protein levels. The reduction in MIF levels were monitored in A549 cells that were treated with two different PROTAC concentrations (20 and 2 μM) for 12 h in order to estimate the dose dependency, which is important for PROTACs because of the Hook effect.[35] The MIF levels in cell lysates were analyzed using an enzyme‐linked immunosorbent assay (ELISA).
S3. ELISA screening of MIF protein level on MIF-directed PROTACs
Cell culture. Human A549 lung cancer cells (ATCCCCL-185) or HEK293 kidney […]
containing 10% (v/v) fetal bovine serum (FBS), 100 U/mL penicillin/streptomycin […]
ELISA. 7×10^5 A549 cells per well were plated in 6-well plates. The next day, cells were treated with a solution of compounds or the vehicle for 12 h. Subsequently, the culture medium was removed and cells were washed twice with cold PBS and collected after trypsin (0.5 mL) degestion. […] The total protein concentration was determined with PierceTM BCA protein assay kit ( ThermoFisher , #23225). […] The relative MIF levels from 1µg total protein were determined by ELISA with the human MIF DuoSet ELISA kit according to the instructions of the manufacturer (R&D systems, #DY289). […]

- degradation (%) 20 µM: 61±14% and more than 50%
SMILES: O=C1CCC(N2C(=O)c3cccc(NCc4cn(CCC(=O)Nc5ccc(N6Cc7ccc(O)cc7OC6=O)cc5)nn4)c3C2=O)C(=O)N1 (stereo not shown) [MD10]
